Data on one molecule can be found in article PMC9037480.

The assay addresses T1, Tsr1-TAP (S. cerevisiae), Q07381.
T1 chain: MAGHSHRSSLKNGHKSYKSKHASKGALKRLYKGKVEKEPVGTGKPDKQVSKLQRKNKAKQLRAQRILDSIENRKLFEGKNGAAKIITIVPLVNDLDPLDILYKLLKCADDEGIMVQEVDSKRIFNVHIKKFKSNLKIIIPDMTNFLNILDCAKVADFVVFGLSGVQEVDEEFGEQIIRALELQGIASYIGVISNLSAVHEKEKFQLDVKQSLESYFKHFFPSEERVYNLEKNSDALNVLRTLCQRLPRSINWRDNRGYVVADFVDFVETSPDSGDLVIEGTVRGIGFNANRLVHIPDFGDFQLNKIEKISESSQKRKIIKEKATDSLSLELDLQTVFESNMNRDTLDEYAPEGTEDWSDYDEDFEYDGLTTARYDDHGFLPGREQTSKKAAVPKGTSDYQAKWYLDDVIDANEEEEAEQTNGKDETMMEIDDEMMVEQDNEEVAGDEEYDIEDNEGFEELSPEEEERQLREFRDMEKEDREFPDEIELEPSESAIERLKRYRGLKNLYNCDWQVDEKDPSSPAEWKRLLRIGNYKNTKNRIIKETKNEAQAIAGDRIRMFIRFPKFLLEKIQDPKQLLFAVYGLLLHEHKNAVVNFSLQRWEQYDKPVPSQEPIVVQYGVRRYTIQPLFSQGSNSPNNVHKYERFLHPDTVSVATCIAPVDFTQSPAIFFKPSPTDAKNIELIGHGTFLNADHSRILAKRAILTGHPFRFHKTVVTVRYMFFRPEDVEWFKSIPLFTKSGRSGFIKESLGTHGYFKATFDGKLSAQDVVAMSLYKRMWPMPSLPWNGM
In words: tandem affinity purification (TAP) with western blot; Tsr1-TAP as bait from yeast lysate of RPS15 wild-type, rps15-1-134 or rps15-RTH(77-79)>A backgrounds; IgG Sepharose, TEV elution, Calmodulin Sepharose, EGTA elution; 50 mM Tris-HCl pH 7.5, 100 mM NaCl, 1.5 mM MgCl2, 0.075% NP-40, 1 mM DTT; eluates analysed by western blot. The conditions noted are these: remark: other sources report otherwise.

Results are given in words; binding and its absence hold for the method and conditions named. Some entries that bind do so weakly or less than the wild type.

B1: Nob1, Q08444 1-459 (protein)
chain: MTENQTAHVRALILDATPLITQSYTHYQNYAQSFYTTPTVFQEIKDAQARKNLEIWQSLGTLKLVHPSENSIAKVSTFAKLTGDYSVLSANDLHILALTYELEIKLNNGDWRLRKKPGDALDASKADVGTDGKQKLTEDNKKEEDSESVPKKKNKRRGGKKQKAKREAREAREAENANLELESKAEEHVEEAGSKEQICNDENIKESSDLNEVFEDADDDGDWITPENLTEAIIKDSGEDTTGSLGVEASEEDRHVALNRPENQVALATGDFAVQNVALQMNLNLMNFMSGLKIKRIRNYMLRCHACFKIFPLPKDGKPKHFCASCGGQGTLLRCAVSVDSRTGNVTPHLKSNFQWNNRGNRYSVASPLSKNSQKRYGKKGHVHSKPQENVILREDQKEYEKVIKQEEWTRRHNEKILNNWIGGGSADNYISPFAITGLKQHNVRIGKGRYVNSSKRRS
On to B1, for which the binding result is “binds”.
